Target: IL-17 (human IL-17) (Homo sapiens) (UniProt Q16552)
Experiment: activity assay
Conditions: rest 2'-OH RNA, 3' idT (stated for in vivo tests), 5' symmetrical brancher with spacer + ssH amino linker + 2 x 40 kDa branched PEG (80 kDa total), in vivo mouse air pouch model, human IL-17 0.5 ug, IL-6 significantly reduced, 0.3-3 mg/kg i.p.

Chains of the proteins cited; added tags and fusions are not shown. Residues count along the entry.
UniProt Q16552, 24-155: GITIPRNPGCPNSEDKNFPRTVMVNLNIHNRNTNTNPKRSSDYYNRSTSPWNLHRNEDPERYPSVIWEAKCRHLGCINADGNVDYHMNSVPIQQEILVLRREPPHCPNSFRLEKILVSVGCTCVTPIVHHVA

Measured: functional effect of the aptamer

GGGUAGCCGGAGGAGTCAGTAAUCGGUACCC
active: 2'-OMe at 1-4,7,8,10,13,14,23-26,28-31, 2'-F at 11,17,18,27, PS at g6, DNA at A5,G9,T16,T20 | 2'-OMe at 1-4,7,8,10,13,14,23-26,28, 2'-F at 11,17,18,27, PS at g6, DNA at A5,G9,T16,T20,C29-C31 | 2'-OMe at 1-5,7,8,10,11,13,14,17,21,23-31, 2'-F at 18, PS at g6,g15,g19, DNA at G9,T16,T20

— patent publication US20190381088
